PubChem BioAssay AID1671195 | Yale University – 2021

Test: 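Regulators of LDL receptor activity judged by labelled LDL uptake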 (primary screen)
System: human Huh7 hepatoma cells
Reagent: siRNA pool against human genes, 18 nM
Timing: about 2 to 2.5 days of knockdown, then 8 h LDL uptake
Conditions: DiI-labelled LDL at 30 µg/ml for 8 h, in lipoprotein-deficient serum medium
Measurement: 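Fluorescent LDL signal imaged in cells, scaled to the plate median, robust z-score for each replicate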
Direction: robust z-score: higher = more LDL uptake after knockdown
Hit rule: 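Active when two or more replicates show a robust z-score above 2 or below -2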
Here is an unselected part of about 22,000 deposited reagents. Of all reagents, about 1,510 (6.9%) were called active. 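Active includes knockdowns raising or lowering LDL uptake; positive z-scores mean more uptake, negative mean less.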 Entries without a mark were called inactive. The numbers tell different reagents against one gene apart. Reagent sequences are not shown.

target | pool no. | robust z-score, replicate 1 | robust z-score, replicate 2 | robust z-score, replicate 3
CYP1B1 | 1 | 0.152 | -0.35 | -0.13
KRTAP22-1 | 1 | -0.0244 | -0.1 | -0.117
G6PC1 | 1 | 0.101 | -0.192 | -0.123
CA10 | 1 | 0.0562 | -0.124 | -0.311
CLEC6A | 1 | -0.437 | -0.0605 | 0.0386
TOR1AIP2 | 1 | -0.359 | -0.127 | -0.58
TOR1AIP2 | 2 | -0.842 | -0.158 | -0.878
LEPROTL1 | 1 | -1.76 | -0.707 | -1.33
RBMS3 | 1 | -0.297 | 0.254 | -0.327
TRPC7 | 1 | 0.112 | -0.496 | -0.197
NT5C1A | 1 | -0.428 | -0.0179 | 0.0483
WFIKKN2 | 1 | 1.24 | 1.33 | 1.34
OR2G6 | 1 | -1.79 | -1.71 | -1.91
ARX | 1 | 0.543 (active) | -2.18 | -2.2
LRRC4B | 1 | -1.22 | -1 | -0.492
RGL3 | 1 | 0.815 | 0.143 | -0.578
SSBP1 | 1 | -0.745 | -0.524 | -0.23
WNT9A | 1 | 0.607 | 0.139 | -0.318
ZNF8 | 1 | -1.22 | -0.991 | -0.733
TUBG2 | 1 | -0.213 | -0.196 | -0.273
SEMA4C | 1 | -0.278 | -0.434 | 0.64
PSENEN | 1 | -2.68 | 0.502 | 0.125
MDGA2 | 1 | -0.0684 | -0.522 | 0.851
ADSL | 1 | 0.339 | 1.29 | 0.365
PTGES2-DT | 1 | -0.999 | -1.35 | -1.19
SAGE1 | 1 | -0.391 | 1.2 | 0.866
RPL11 | 1 | -1.34 | -1.36 | -0.879
LOC440071 (retired record) | 1 | 0.147 | 0.905 | 0.155
LOC401441 (retired record) | 1 | -0.00468 | -0.247 | 0.271
MCU | 1 | 0.541 | 0.602 | -0.281
LCA5L | 1 | -1.66 | -1.35 | -1.64
LOC391047 (retired record) | 1 | -1.49 | -1.26 | -1.66
PRSS50 | 1 | -1.85 | -1.8 | -1.69
TBC1D24 | 1 | -0.0388 | 0.728 | 0.414
LOC442498 (retired record) | 1 | 0.391 | 0.0497 | -1.52
NAPSA | 1 | -0.28 | -0.0816 | -0.111
ARID5A | 1 | -0.687 | -0.609 | -0.155
H2AC8 | 1 | 0.908 | 0.432 | 1.29
CCDC71L | 1 | -0.344 | 0.666 | -0.266
PARP2 | 1 | 0.299 | 0.125 | 1.04
VSX1 | 1 | -1.43 | -1.79 | -1.67
ZNF600 | 1 | 0.545 | 0.631 | 0.00715
FLJ40712 (retired record) | 1 | 1.02 | 0.813 | 0.0556
LOC144962 (retired record) | 1 | 0.526 | -0.53 | 1.16
ASH2L | 1 | 0.4 | 0.0903 | 0.564
KDM7A | 1 | 0.427 | -0.422 | 0.61
ANTKMT | 1 | -0.283 | 0.0882 | -0.298
CARMIL3 | 1 | -0.278 | 0.0907 | 0.00977
ANGPT4 | 1 | 0.257 | -0.241 | -0.0264
MAGEA1 | 1 | -0.581 | 0.703 | -0.242
H4C13 | 1 | -0.333 | 0.542 | -1.07
SNTG2 | 1 | 0.374 | 1.11 | 0.995
LOC389846 (retired record) | 1 | -0.235 | -0.194 | 0.173
FOLR2 | 1 | -1.91 (active) | -2.18 | -1.78
MAP3K4 | 1 | -0.677 | -0.875 | -0.93
JDP2 | 1 | 0.472 | 0.0829 | 0.22
ZNF101 | 1 | -0.825 | -1.15 | -1.21
ADRB1 | 1 | -0.0684 | -0.958 | -0.459
AADAT | 1 | -0.141 | -0.475 | -0.691
LOC391800 (retired record) | 1 | 0.564 | 0.358 | 0.147
EIF2B3 | 1 | -0.824 | -0.651 | -0.598
CDK5RAP3 | 1 | -2.08 (active) | -2.13 | -2.26
LSM11 | 1 | 3.76 (active) | 3.71 | 3.5
CMC2 | 1 | 0.656 | 0.259 | -0.378
FECH | 1 | -1.26 | -0.0765 | -0.738
COPS9 | 1 | 1.62 | 0.693 | 1.86
LOC441928 (retired record) | 1 | -0.236 | -0.0563 | -0.231
EVPL | 1 | -0.653 | -0.524 | -1.84
HPS4 | 1 | 0.512 | 1.36 | 0.871
OXSM | 1 | -0.233 | -0.463 | -0.209
TMA7 | 1 | 0.0471 | 1.12 | 0.195
LOC440959 (retired record) | 1 | -0.287 | -0.402 | -0.736
CPEB2-DT | 1 | 0.237 | 0.19 | 1.02
KIR3DL3 | 1 | -0.599 | -0.4 | -0.48
SUCO | 1 | -1.1 | -0.452 | -0.846
UQCC5 | 1 | -0.213 | -0.433 | -0.579
ZNF43 | 1 | -1.75 | -1.6 | -1.9
TDO2 | 1 | -1.02 | -0.734 | -0.934
PLXNA1 | 1 | 0.151 | 0.784 | -0.0116
LOC441139 (retired record) | 1 | 1.01 | 1.16 | 1.02
HCLS1 | 1 | -1.32 | -1.5 | -1.43
EIF4B | 1 | -0.655 | -0.759 | 0.00204
DENND1B | 1 | 1.43 | 0.296 | 0.806
DENND1B | 2 | -1.36 | -1.2 | -1.46
TSPAN7 | 1 | 1.19 | 0.963 | 0.784
CTSV | 1 | -0.207 | -0.832 | -0.529
CUL2 | 1 | 0.81 (active) | 4.52 | 2.49

Reprinted from the listing, 14 entries:
target | pool no. | robust z-score, replicate 1 | robust z-score, replicate 2 | robust z-score, replicate 3
PTGES2-DT | 1 | -0.999 | -1.35 | -1.19
SAGE1 | 1 | -0.391 | 1.2 | 0.866
RPL11 | 1 | -1.34 | -1.36 | -0.879
LOC440071 (retired record) | 1 | 0.147 | 0.905 | 0.155
LOC401441 (retired record) | 1 | -0.00468 | -0.247 | 0.271
MCU | 1 | 0.541 | 0.602 | -0.281
LCA5L | 1 | -1.66 | -1.35 | -1.64
LOC391047 (retired record) | 1 | -1.49 | -1.26 | -1.66
PRSS50 | 1 | -1.85 | -1.8 | -1.69
TBC1D24 | 1 | -0.0388 | 0.728 | 0.414
LOC442498 (retired record) | 1 | 0.391 | 0.0497 | -1.52
NAPSA | 1 | -0.28 | -0.0816 | -0.111
ARID5A | 1 | -0.687 | -0.609 | -0.155
H2AC8 | 1 | 0.908 | 0.432 | 1.29
